Consider six substances from publication PMC2892021.

Experiment in all cases: pull-down; GST-DH, GST-PH and GST-DHPH as bait; each SH3 domain individually and all five SH3 domains together, in trans
Experiment [1] addresses T1, GST-PH (intersectin-1L PH domain fused to GST) (mouse) (UniProt Q9Z0R4).
T1 sequence: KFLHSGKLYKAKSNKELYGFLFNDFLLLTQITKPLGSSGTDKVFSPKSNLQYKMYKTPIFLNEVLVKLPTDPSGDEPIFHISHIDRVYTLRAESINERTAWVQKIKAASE

Experiment [2] has as its target T2, GST-DH (intersectin-1L DH domain fused to GST) (mouse) (UniProt Q9Z0R4).
T2 sequence: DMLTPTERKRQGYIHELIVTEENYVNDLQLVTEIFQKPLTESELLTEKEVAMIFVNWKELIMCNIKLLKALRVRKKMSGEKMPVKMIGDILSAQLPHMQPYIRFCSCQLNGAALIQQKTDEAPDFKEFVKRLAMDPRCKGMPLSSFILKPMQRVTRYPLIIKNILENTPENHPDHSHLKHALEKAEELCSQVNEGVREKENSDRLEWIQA

The target in experiment [3] is T3, GST-DHPH (intersectin-1L DH-PH domain fragment fused to GST) (mouse) (UniProt Q9Z0R4).
T3 sequence: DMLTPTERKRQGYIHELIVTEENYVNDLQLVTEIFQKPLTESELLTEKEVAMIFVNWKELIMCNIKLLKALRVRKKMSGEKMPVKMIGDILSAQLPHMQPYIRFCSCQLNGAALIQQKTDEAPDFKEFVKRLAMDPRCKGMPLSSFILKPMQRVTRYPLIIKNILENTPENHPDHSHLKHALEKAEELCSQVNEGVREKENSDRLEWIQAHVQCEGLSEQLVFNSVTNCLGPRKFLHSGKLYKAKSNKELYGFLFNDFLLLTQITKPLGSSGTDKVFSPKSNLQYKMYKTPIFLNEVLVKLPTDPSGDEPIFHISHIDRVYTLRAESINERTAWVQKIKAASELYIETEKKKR

Results are given in words; binding and its absence hold for the method and conditions named. Binding seen in cells or lysates may run through a third protein. Where a sequence is shown, tags or fusion partners need not be part of it.

For “intersectin-1L SH3(A) domain (mouse) (domain or fragment)”, the binding result in experiment [1], in experiment [2] and in experiment [3] was “no binding” throughout.

Turning to “intersectin-1L SH3(ABCDE) fragment (all five SH3 domains together) (mouse) (domain or fragment)”, the binding entry in experiment [1] and in experiment [2] was “no binding” throughout.

Regarding “intersectin-1L SH3(B) domain (mouse) (domain or fragment)”, the binding result in experiment [1], in experiment [2] and in experiment [3] was “no binding” throughout.

With “intersectin-1L SH3(C) domain (mouse) (domain or fragment)”, the binding result in experiment [1], in experiment [2] and in experiment [3] was “no binding” throughout.

As to “intersectin-1L SH3(D) domain (mouse) (domain or fragment)”, the binding result in experiment [1], in experiment [2] and in experiment [3] was “no binding” throughout.

As for “intersectin-1L SH3(E) domain (mouse) (domain or fragment)”, the binding entry in experiment [1] and in experiment [2] was “no binding” throughout.
